From PMC8579449 come the findings set out here.

Sequences of proteins named here, by UniProt entry; tags and fusion partners are left off.
UniProt Q96KQ7: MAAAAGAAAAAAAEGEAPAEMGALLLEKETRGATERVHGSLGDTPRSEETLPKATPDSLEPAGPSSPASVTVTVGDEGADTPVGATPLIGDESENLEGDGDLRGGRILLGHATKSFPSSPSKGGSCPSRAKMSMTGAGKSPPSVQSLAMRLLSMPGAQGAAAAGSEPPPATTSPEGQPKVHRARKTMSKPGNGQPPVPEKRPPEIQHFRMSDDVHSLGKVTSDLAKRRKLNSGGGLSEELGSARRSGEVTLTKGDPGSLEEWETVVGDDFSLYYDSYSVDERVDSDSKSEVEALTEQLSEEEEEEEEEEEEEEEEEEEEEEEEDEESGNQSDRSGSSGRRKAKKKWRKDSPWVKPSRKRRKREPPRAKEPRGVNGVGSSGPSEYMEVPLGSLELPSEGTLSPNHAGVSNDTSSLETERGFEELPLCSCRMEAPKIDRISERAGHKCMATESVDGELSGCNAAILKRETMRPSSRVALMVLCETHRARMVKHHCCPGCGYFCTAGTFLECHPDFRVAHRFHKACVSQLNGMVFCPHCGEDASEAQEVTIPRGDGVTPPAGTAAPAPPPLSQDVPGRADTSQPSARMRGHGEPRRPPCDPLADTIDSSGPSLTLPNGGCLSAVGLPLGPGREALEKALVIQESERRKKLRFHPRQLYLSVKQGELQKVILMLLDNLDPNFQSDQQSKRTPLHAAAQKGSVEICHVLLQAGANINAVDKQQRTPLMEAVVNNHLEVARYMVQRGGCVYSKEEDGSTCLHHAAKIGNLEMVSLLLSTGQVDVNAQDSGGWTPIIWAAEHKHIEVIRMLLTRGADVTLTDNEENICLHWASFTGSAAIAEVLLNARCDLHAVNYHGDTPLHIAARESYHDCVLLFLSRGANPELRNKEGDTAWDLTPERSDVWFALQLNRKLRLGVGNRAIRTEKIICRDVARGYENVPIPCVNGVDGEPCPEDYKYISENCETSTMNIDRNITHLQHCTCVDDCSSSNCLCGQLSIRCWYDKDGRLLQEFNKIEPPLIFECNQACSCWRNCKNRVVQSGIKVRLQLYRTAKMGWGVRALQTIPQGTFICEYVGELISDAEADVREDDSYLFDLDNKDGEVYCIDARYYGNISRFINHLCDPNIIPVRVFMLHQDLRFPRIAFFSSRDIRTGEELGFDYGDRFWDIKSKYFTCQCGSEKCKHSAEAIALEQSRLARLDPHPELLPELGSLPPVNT
UniProt P01106: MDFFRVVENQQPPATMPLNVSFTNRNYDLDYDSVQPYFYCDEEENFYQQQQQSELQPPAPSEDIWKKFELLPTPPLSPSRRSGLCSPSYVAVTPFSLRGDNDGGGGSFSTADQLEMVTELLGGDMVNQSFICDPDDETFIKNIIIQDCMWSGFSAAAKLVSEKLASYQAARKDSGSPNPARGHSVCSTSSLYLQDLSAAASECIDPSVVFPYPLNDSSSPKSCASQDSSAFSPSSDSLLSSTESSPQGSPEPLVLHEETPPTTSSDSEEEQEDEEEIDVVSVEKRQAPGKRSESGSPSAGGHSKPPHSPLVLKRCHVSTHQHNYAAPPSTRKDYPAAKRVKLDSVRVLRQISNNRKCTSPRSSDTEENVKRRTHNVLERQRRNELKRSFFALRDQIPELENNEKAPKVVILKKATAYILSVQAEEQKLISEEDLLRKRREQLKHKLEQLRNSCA

Test [1] has as its target G9a (human (endogenous in breast cancer cells)) (UniProt Q96KQ7). The test is described as follows: co-IP; immunoprecipitation with the c-MYC antibody from breast cancer cells, IgG control; cell line and conditions not told.
Test [2] has as its target c-MYC (human (endogenous in breast cancer cells)) (UniProt P01106). The description is as above.

Results are given in words; binding and its absence hold for the method and conditions named. Binding seen in cells or lysates may run through a third protein. Some results given as binding are weak or reduced against the parent protein; the word gives no strength.

As to FTH1 (from UniProt P02794 1-183), the binding result in test [1] and in test [2] was “no binding” throughout. Regarding G9a (from UniProt Q96KQ7 1-1210), the binding entry in test [2] was “binds”.
